For assay [1], the target named is cell membrane-bound human 4-1BB (endogenous, on ionomycin/PMA stimulated CCRF-CEM cells or primary CD8+ T cells) (human) (UniProt Q07011). Nature of the assay: flow cytometry on PMA/ionomycin stimulated CEM cells, anti-penta-His Alexa Fluor-488 detection. (In general: In flow cytometry, cells or beads pass a laser one at a time.)
Assay [2] shares this target. Nature of the assay: flow cytometry on PMA/ionomycin stimulated CEM cells (FIG. 8A).

The chains behind the UniProt entries cited, without tags or fusion partners. Where a name states a change or a piece, a line headed by the entry shows the natural chain unless it says otherwise.
UniProt Q07011: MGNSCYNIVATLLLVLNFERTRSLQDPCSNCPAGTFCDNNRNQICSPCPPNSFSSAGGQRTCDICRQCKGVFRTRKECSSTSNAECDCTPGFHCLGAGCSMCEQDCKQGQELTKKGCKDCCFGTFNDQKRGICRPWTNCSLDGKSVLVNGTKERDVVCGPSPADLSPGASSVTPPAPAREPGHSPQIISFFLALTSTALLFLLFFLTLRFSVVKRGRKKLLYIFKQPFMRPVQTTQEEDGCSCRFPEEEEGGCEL

Results are given in words; binding and its absence hold for the method and conditions named. Some entries that bind do so weakly or less than the wild type.

B1: DARPin® protein #54 (designed binder, not shown: small tags and cut ends)
chain: GSDLGQKLLKAAQEGQDDEVRELLKAGADVNAKDLRGITPLHVAAWQGHLEIVEVLLKAGADVNAKDSKGETPLHLAAFRGHLEIVEVLLKAGADVNAQDQQGETPADLAALAGHVDIAEVLQKLNGSPTPTPTTPTPTPTTPTPTPTGSDLGQKLLKAAQEGQDDEVRELLKAGADVNAKDLRGITPLHVAAWQGHLEIVEVLLKAGADVNAKDSKGETPLHLAAFRGHLEIVEVLLKAGADVNAQDQQGETPADLAALAGHVDIAEVLQKLNGSPTPTPTTPTPTPTTPTPTPTGSDLGQKLLKAAQEGQDDEVRELLKAGADVNAKDLRGITPLHVAAWQGHLEIVEVLLKAGADVNAKDSKGETPLHLAAFRGHLEIVEVLLKAGADVNAQDQQGETPADLAALAGHVDIAEVLQKLN
B1: the binding entry in assay [1] and in assay [2] was “binds” in each case.

B2: DARPin® protein #51 (designed binder, not shown: small tags and cut ends)
chain: GSDLGQKLLKAAQEGQDDEVRELLKAGADVNAKDLRGITPLHVAAWQGHLEIVEVLLKAGADVNAKDSKGETPLHLAAFRGHLEIVEVLLKAGADVNAQDQQGETPADLAALAGHVDIAEVLQKLNGSPTPTPTTPTPTPTTPTPTPTGSDLGQKLLKAAQEGQDDEVRELLKAGADVNAKDLRGITPLHVAAWQGHLEIVEVLLKAGADVNAKDSKGETPLHLAAFRGHLEIVEVLLKAGADVNAQDQQGETPADLAALAGHVDIAEVLQKLN
B2: the binding entry in assay [1] and in assay [2] was “binds” each time.
